For the assay, the target named is FLAG-tagged vIRF3 (pCEBZ-vIRF3-SF) (Kaposi's sarcoma-associated herpesvirus). The assay is described as follows: co-IP; HEK293T cells cotransfected with FLAG-tagged vIRF3 and CBD-tagged IRF4; lysis buffer 50 mM Tris, 150 mM NaCl, 5 mM EDTA, 0.2% NP-40, pH 7.4; cleared extracts incubated overnight at 4°C with anti-FLAG M2 magnetic beads or chitin resin beads; immunoblot with anti-FLAG and anti-CBD. Background: Immunoblotting shows a protein as a band on a membrane.

No constants are given. Whether binding was seen depends on the method and setting. Binding seen in cells or lysates may run through a third protein. Binding can be weak; no strength is given. Sequences can lack the tags named with a protein.

B1: chitin-binding domain (CBD)-tagged IRF4 (pCEBZ-IRF4-CBD) (protein, UniProt Q15306 1-451)
chain: MNLEGGGRGGEFGMSAVSCGNGKLRQWLIDQIDSGKYPGLVWENEEKSIFRIPWKHAGKQDYNREEDAALFKAWALFKGKFREGIDKPDPPTWKTRLRCALNKSNDFEELVERSQLDISDPYKVYRIVPEGAKKGAKQLTLEDPQMSMSHPYTMTTPYPSLPAQQVHNYMMPPLDRSWRDYVPDQPHPEIPYQCPMTFGPRGHHWQGPACENGCQVTGTFYACAPPESQAPGVPTEPSIRSAEALAFSDCRLHICLYYREILVKELTTSSPEGCRISHGHTYDASNLDQVLFPYPEDNGQRKNIEKLLSHLERGVVLWMAPDGLYAKRLCQSRIYWDGPLALCNDRPNKLERDQTCKLFDTQQFLSELQAFAHHGRSLPRFQVTLCFGEEFPDPQRQRKLITAHVEPLLARQLYYFAQQNSGHFLRGYDLPEHISNPEDYHRSIRHSSIQE
B1: the binding result is recorded as “binds”.
